Test results as given in PubChem BioAssay AID743266 (National Center for Advancing Translational Sciences (NCATS), 2014).
About 310 (0.076%) of roughly 410,000 compounds were called active. This list was built around the results that the source calls inconclusive (neither active nor inactive); the mix of calls is not that of the screen. Calls come from the whole dose curve; as a rule, active = well fitted activation curve with a large enough effect; inconclusive = small, poorly fitted or top-dose-only effect, or another doubt; inactive = no such curve, though single readings can be large or run the other way. Potencies beside an inconclusive call are fits to weak or partial responses and may not hold up.

Amino acid sequences for entries named in this document (tags omitted). A change or cut given only in a name is not applied to a line headed by its entry.
UniProt Q03431: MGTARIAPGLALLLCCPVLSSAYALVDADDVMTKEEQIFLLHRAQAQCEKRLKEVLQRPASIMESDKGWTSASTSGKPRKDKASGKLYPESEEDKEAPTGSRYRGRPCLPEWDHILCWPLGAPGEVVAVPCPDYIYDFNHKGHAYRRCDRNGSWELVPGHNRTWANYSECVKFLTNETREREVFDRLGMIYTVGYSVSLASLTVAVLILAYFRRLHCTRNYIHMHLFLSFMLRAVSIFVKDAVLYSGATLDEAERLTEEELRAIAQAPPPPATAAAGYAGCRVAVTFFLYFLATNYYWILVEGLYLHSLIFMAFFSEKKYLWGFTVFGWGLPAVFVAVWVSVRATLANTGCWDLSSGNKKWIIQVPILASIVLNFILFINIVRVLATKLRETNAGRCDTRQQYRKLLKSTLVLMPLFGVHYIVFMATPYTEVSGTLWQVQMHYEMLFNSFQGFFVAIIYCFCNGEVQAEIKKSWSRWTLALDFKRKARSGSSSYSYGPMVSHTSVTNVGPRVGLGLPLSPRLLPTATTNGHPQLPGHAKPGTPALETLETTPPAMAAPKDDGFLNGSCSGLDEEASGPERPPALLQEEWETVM

Target: Parathyroid hormone/parathyroid hormone-related peptide receptor (Homo sapiens) (UniProt Q03431)
Experiment: qHTS for PTHR1 Agonists: Primary Screen; note: nearly all actives have a fitted effect of over 55% in size
Conditions: HEK293 GP2 PTHR1 cells, GloSensor cAMP luminescence, 1 h; activation: at 115 µM (top of the series) unless noted; series mostly up to 115 µM
Source text: The goal of the proposed studies is to discover new compounds that act as potent agonists on the parathyroid hormone receptor type-1 (PTHR1). The PTHR1 plays critical roles in maintaining blood calcium and phosphate levels, as well as in controlling bone remodeling. PTHR1 agonists could thus be useful for treating diseases such as hypoparathyroidism and osteoporosis. In the former disease, an agonist drug would help maintain normal blood calcium and phosphate levels under conditions of parathyroid hormone deficiency. In the latter disease, an agonist drug would stimulate new bone formation and thus reduce the risk of fracture, under conditions of bone fragility, as occurs in aging.
To that end, we performed a quantitative high-throughput screening (qHTS) of the Molecular Libraries Probe Centers Network (MLPCN) compound libraries at the NIH Chemical Genomics Center (NCGC) for the parathyroid hormone receptor type-1 (PTHR1) using a unique HEK-293-derived cell line (GP2) that expresses the PTHR1 and a glosensor cAMP reporter construct.
NIH Molecular Libraries Probe Production Centers Network [MLPCN]
NIH Chemical Genomics Center [NCGC]
Assay Submitter (PI): Thomas Gardella, Massachusetts General Hospital
4 microL are dispensed into a 1536-well micro plate to yield 3,000 cells/well. The plates are then incubated overnight, after which 4 microL of 0.5 mM of BIoTium Luciferin plus 0.5 mM IBMX are added. They are then incubated at 37 degree for one hour before 23 nL of compounds are added through pinning and then incubated at 37 degree again for another hour. After the plates are kept at room temperature for 15 min before they are read on the ViewLux to measure luminescence.
Potency is the fitted concentration of half-maximal effect.

Row | Structure (SMILES) | Potency | activation
1 | C#CCNC(=O)C[C@@H]1C[C@@]2(C(=O)OCC)CCCC=C2N(Cc2ccc3c(c2)OCO3)C1=O | inconclusive: 50.1 µM [activator, partial curve, poor fit] | 
2 | CCC12CN3CC(C)(CN(C1)C3c1c[nH]c3ccccc13)C2=O (stereo not given) | inactive | 
3 | Cc1ccc(N2C(=O)N(CC(=O)NCc3ccccc3Cl)C(=O)C2C)cc1 (stereo not given) | inconclusive: 5.01 µM [activator, partial curve, poor fit] | 
4 | CC(=O)Nc1ccc(NC(=O)C(C)n2nc(C)c([N+](=O)[O-])c2C)cc1 (stereo not given) | inconclusive: 126 µM [activator, single point] | 
5 | CN1CCCN=C1/C=C/c1cccs1 | inconclusive: 70.8 µM [activator, partial curve, poor fit] | 
6 | CCNC(=O)C(C)NC(=O)C1=NN(c2ccccc2)C(=O)CC1 (stereo not given) | inconclusive: 14.1 µM [activator, partial curve] | 
7 | NC(c1csc(Nc2ncccn2)n1)c1ccccc1Cl (stereo not given) |  | inconclusive: 23.6% [activator]
8 | COc1ccc(CCNC(=O)Cn2nc(C)n3c(cc4occc43)c2=O)cc1OC | inconclusive: 112 µM [activator, single point] | 
9 | Cc1occc1C(=O)N/N=C/c1sc(N2CCOCC2)nc1-c1ccccc1 | inconclusive: 89.1 µM [activator, partial curve, poor fit] | 
10 | CC1(C)NC(=O)N(CC(O)CN(c2ccccc2)S(=O)(=O)c2ccc([N+](=O)[O-])cc2)C1=O (stereo not given) | inactive | 
11 | Cn1cc(CNC(=O)c2ccc3nc(Cc4ccccc4F)oc3c2)cn1 | inactive | 
12 | CC(C)CNC(=O)C(=O)NCc1ccccc1 |  | inconclusive: 30.5% [activator]
13 | CCN(CC)C(=O)c1cccc(NC(=O)CC23CC4CC(CC(C4)C2)C3)c1 | inconclusive: 126 µM [activator, single point] | 
14 | Cc1cnc(C)c(N2CCN(Cc3nc(-c4cccc(F)c4F)oc3C)CC2)n1 | inactive | 
15 | S=c1[nH]c(-c2ccccc2)cn1/N=C/c1cccnc1 | inconclusive: 126 µM [activator, single point] | 
16 | Cc1nc(N2CCC(C)CC2)c2c(C)c(C(=O)Nc3ccccc3C(F)(F)F)sc2n1 | inactive | 
17 | Cc1ccc(NC(=O)Nc2ncccc2C)cc1 | inactive | 
18 | Cc1ccc(C(C(=O)NC2CCCC2)N(C(=O)Cc2cccs2)c2cccc(C)c2C)o1 (stereo not given) | inactive | 
19 | Oc1ccccc1/C=N/NC(=S)NC1CC2CCC1C2 (stereo not given) |  | inconclusive: -46.6% [activator]
20 | CCOc1ccc(-n2c(SCc3ccc([N+](=O)[O-])cc3)nnc2-c2ccccc2)cc1 | inconclusive: 56.2 µM [activator, partial curve, poor fit] | 
21 | O=C(CSc1nnnn1-c1ccc(F)cc1)NNC(=O)c1ccco1 | inconclusive: 12.6 µM [activator, partial curve, poor fit] | 
22 | N#Cc1ccc(COC(=O)c2ccc3c(c2)OCO3)cc1 | inconclusive: 56.2 µM [activator, partial curve, poor fit] | 
23 | CC(C)N(C)c1ncnc2c1ncn2[C@H]1CN(Cc2ccc(-c3ccccc3)cc2)C[C@@H](CO)O1 | inactive | 
24 | CCCCCOc1ccccc1C(=O)NCCCC(=O)O |  | inconclusive: 43.3% [activator]

Row | Structure (SMILES) | Potency | activation
25 | CCOC(=O)c1c(NC(=O)c2cc(C)on2)c2cc([N+](=O)[O-])ccc2n1C |  | inconclusive: 31.3% [activator]
26 | N#Cc1ccccc1Cn1c(SCC(=O)Nc2ccc(F)cc2)nc2ccccc21 | inactive | 
27 | Cc1ccc(CNC(=O)Cn2cnc3cc([N+](=O)[O-])ccc3c2=O)cc1 | inactive | 
28 | Cc1cccc(C(=O)N(Cc2ccco2)Cc2ccccc2F)c1 | inconclusive: 3.98 µM [activator, full curve, poor fit] | 
29 | CCOc1cc2[nH]c(=S)n(Cc3ccc(C)o3)c(=O)c2cc1OCC | inconclusive: 39.8 µM [activator, single point] | 
30 | CCN(CC)c1ccc(/C=N/NC(=O)CNC(=O)c2ccc3c(c2)OCCO3)cc1 | inconclusive: 141 µM [activator, single point] | 
31 | CC(Nc1nc(Nc2ccc(F)cc2)nc(SCC(N)=O)n1)c1ccccc1 (stereo not given) |  | inconclusive: -53.4% [activator]
32 | O=C(CN1C(=O)/C(=C/c2ccccc2Cl)SC1=S)NC1C=CS(=O)(=O)C1 (stereo not given) | inactive | 
33 | COc1ccc(S(=O)(=O)NCC(c2ccco2)N2CCOCC2)cc1 (stereo not given) | inconclusive: 15.8 µM [activator, partial curve, poor fit] | 
34 | OCCN1CCN(CC(O)COCC2COc3ccccc3O2)CC1 (stereo not given) | inconclusive: 25.1 µM [activator, single point] | 
35 | CCCCOc1ccc(C(=O)CCN2CCCCC2)cc1 | inactive | 
36 | COc1cc(C2c3c(oc4ccccc4c3=O)C(=O)N2c2nncs2)cc(OC)c1OC (stereo not given) | inconclusive: 31.6 µM [activator, partial curve, poor fit] | 
37 | Cc1ccc(C)c(N2CCN(c3cc(C)nc4c(-c5ccc(Cl)cc5)c(C)nn34)CC2)c1 | inconclusive: 89.1 µM [activator, partial curve, poor fit] | 
38 | CCCCNC(=O)NC12CC3CC(CC(C3)C1)C2 | inactive | 
39 | Cc1cc2nc(-c3cccc(Cl)c3)c(Cc3ccccc3)n2c(C)c1Br |  | inconclusive: 35.4% [activator]
40 | COc1cc(C)ccc1Oc1nc(-c2ccccc2O)nc2ccccc12 | inconclusive: 0.767 µM [activator, full curve] | 
41 | COc1cccc(-n2c(SCc3ccccc3C)nc3c([nH]c4ccccc43)c2=O)c1 | inactive | 
42 | Cc1ccc(/C=N/N=C2/NC(=O)C(CC(=O)Nc3ccccc3)S2)o1 (stereo not given) |  | inconclusive: 49% [activator]
43 | NC(=O)c1c(NC(=O)c2ccc(F)cc2Cl)sc2c1CCC2 | inactive | 
44 | COc1ccc([C@H](C)NC[C@H](O)c2ccc(O)c(NC=O)c2)cc1 | inconclusive: 3.55 µM [activator, partial curve, poor fit] | 
45 | COc1ccc2[nH]c(=O)c(CN(CCc3ccccc3)Cc3nnnn3CC3CCCO3)cc2c1 (stereo not given) | inconclusive: 35.5 µM [activator, single point] | 
46 | Cc1cc(C)c2c(CC(=O)O)c(C)[nH]c2c1 | inconclusive: 50.1 µM [activator, partial curve, poor fit] | 
47 | CC(C)n1cnc(S(=O)(=O)N2CCCC(C(=O)NCc3ccccc3Cl)C2)c1 (stereo not given) |  | inconclusive: -95.5% [activator]
48 | Cc1cc(=O)oc2c(C)c(OCC(=O)NC3CCN(Cc4ccccc4)CC3)ccc12 | inconclusive: 25.1 µM [activator, partial curve] | 

Of the compounds above, four have a thiophene ring, fused or not:
Row | Structure (SMILES) | Potency | activation
5 | CN1CCCN=C1/C=C/c1cccs1 | inconclusive: 70.8 µM [activator, partial curve, poor fit] | 
16 | Cc1nc(N2CCC(C)CC2)c2c(C)c(C(=O)Nc3ccccc3C(F)(F)F)sc2n1 | inactive | 
18 | Cc1ccc(C(C(=O)NC2CCCC2)N(C(=O)Cc2cccs2)c2cccc(C)c2C)o1 (stereo not given) | inactive | 
43 | NC(=O)c1c(NC(=O)c2ccc(F)cc2Cl)sc2c1CCC2 | inactive | 

(further entries)

Row | Structure (SMILES) | Potency | activation
49 | CCOc1ccc(NC(=O)CN(c2ccc(Cl)cc2C)S(=O)(=O)c2ccccc2)cc1 |  | inconclusive: 53.7% [activator]
50 | Fc1ccc(CSc2nnc(-c3ccncc3)o2)cc1 | inactive | 
51 | Cc1ccc(N2C(=O)[C@@H]3CSC(c4ccc(F)cc4)N3C2=O)cc1 (stereo not given in full) | inconclusive: 15.8 µM [activator, partial curve] | 
52 | COc1ccc(C(=O)O/N=C(\N)Cc2ccc(Cl)cc2Cl)cc1OC | inconclusive: 112 µM [activator, partial curve, poor fit] | 
53 | CCN(CC)CCNC(=O)c1ccc2c(c1)NC(=O)C(CS(=O)(=O)Cc1cccc(Br)c1)N2 (stereo not given) | inconclusive: 44.7 µM [activator, partial curve, poor fit] | 
54 | N#CCCOC1(C#CCN2CCCC2)CCCCC1 | inconclusive: 35.5 µM [activator, single point] | 
55 | CCn1cc(/C=C(\NC(=O)c2ccccc2F)C(=O)NCCCn2ccnc2)c2ccccc21 |  | inconclusive: 49.9% [activator]
56 | CCC(=O)C1CCCN(C(=O)c2ccc3nc(-c4cccc(OC)c4)oc3c2)C1 (stereo not given) | inactive | 
57 | COc1ccc(C(CNC(=O)Cc2ccccc2Cl)N2CCCCC2)cc1 (stereo not given) | inconclusive: 112 µM [activator, partial curve, poor fit] | 
58 | O=C1CN(C(=O)/C=C/c2ccc(Cl)cc2Cl)CCN1 | inactive | 
59 | Cc1cccc(-c2c3c(=O)n(C)c(=O)n(C)c3cn2-c2ccccc2O)c1 | inactive | 
60 | O=C(Nc1ccccc1Cl)N1CCC(CN2CCCCC2)CC1 | inconclusive: 3.98 µM [activator, full curve, poor fit] | 
61 | O=C(c1cccc([N+](=O)[O-])c1)N1CCN(C/C=C/c2ccccc2)CC1 | inactive | 
62 | COCCCNC(=O)CCCCn1c(=O)c2ccccc2n(CC(=O)Nc2ccc(C)cc2C)c1=O | inconclusive: 25.1 µM [activator, partial curve] | 
63 | O=C(COc1ccc(Br)cc1)Nc1ccc(CN2CCOCC2)cc1 | inactive | 
64 | Cc1ccc(/C=C/c2ccc(N(C)C)cc2)[n+](C)c1 | inactive | 
65 | CCc1cccc(C)c1NC(=O)COC(=O)CC1CCCC1 |  | inconclusive: 34.8% [activator]
66 | COc1ccc(CNCc2cn(-c3cccc(F)c3)nc2-c2ccc(C)o2)cc1 |  | inconclusive: -93% [activator]
67 | COc1ccc(N=CC2=C(O)c3ccccc3C2=O)cc1 |  | inconclusive: -86.3% [activator]
68 | CCN(CC)CC(=O)Nc1cccc(S(=O)(=O)N2CCCC2)c1 | inconclusive: 56.2 µM [activator, partial curve, poor fit] | 
69 | CC1Sc2ccc(Cl)cc2-c2nc(N)ncc21 (stereo not given) | inconclusive: 89.1 µM [activator, partial curve, poor fit] | 
70 | COc1ccc(/C=N/NC(=O)c2ccc(CSc3nncn3C)cc2)cc1OC |  | inconclusive: 54% [activator]
